Laboratory results reported in PubChem BioAssay AID504834 (National Center for Advancing Translational Sciences (NCATS), 2011).
Among all 320,000 compounds or so, about 22,000 (6.9%) were called active. Inconclusive results, whose numbers are uncertain, are shown with a selection of clear calls. The call rests on the fitted dose curve; in most records, active means well fitted inhibition curve with a large enough effect; inconclusive means small, poorly fitted or top-dose-only effect, or another doubt; inactive means no such curve, though single readings can be large or run the other way. Where the call is inconclusive, the potency comes from a doubtful curve fit.

Test: Primary qHTS for delayed death inhibitors of the malarial parasite plastid, 96 hour incubation
Conditions: P. falciparum luciferase reporter growth; series mostly up to 28.7 µM; activity change, negative = inhibition: at the top concentration
Method in brief: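 Luminescence readout: decreased luciferase signal marks inhibited growth of reporter-expressing P. falciparum in infected red cells (2% hematocrit, 0.05% parasitemia final), exposed to compound two generations (96 h, 37 C, 5% CO2).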
On the % scale 0 is the no-effect control and ±100 the full control effect; potency means the concentration at half of the fitted maximal effect.

SMILES | Potency | activity change, negative = inhibition
CCc1nnc(NC(=O)CSc2nc3c(c(=O)n2-c2ccccc2OC)SCC3)s1 | active: 8.28 µM | 
O=C1CCC[C@@H]2Cc3[nH]c4c(Cl)ccc(Cl)c4c3[C@@H]3CCN1[C@H]23 | inconclusive: 2.94 µM [inhibitor, partial curve, poor fit] | 
NC(N)=NS(=O)(=O)c1ccc(NC(=S)NC(=O)c2ccncc2)cc1 | inconclusive: 11.7 µM [inhibitor, partial curve] | 
Cc1ccc(S(=O)(=O)c2nc(S(C)(=O)=O)sc2N2CCCCC2C)cc1 (configuration not stated) | inconclusive: 10.4 µM [inhibitor, partial curve, poor fit] | 
Cc1c(C(=O)N2CCN(Cc3ccc4c(c3)OCO4)CC2)sc2ncnc(N3CCN(c4ccccc4F)CC3)c12 | inconclusive: 18.5 µM [inhibitor, single point] | 
COC(=O)c1ccc(/C=N/OCC(=O)NCCc2ccc(OC)c(OC)c2)cc1 | inconclusive: 0.828 µM [inhibitor, partial curve, poor fit] | 
Cc1ccc(NC(=O)c2ccc(Cl)c(S(=O)(=O)Nc3c(C)n(C)n(-c4ccccc4)c3=O)c2)cc1Cl | inconclusive: 11.7 µM [inhibitor, partial curve, poor fit] | 
CC/C(=N\NC(=O)C1CC1)c1cccc(Cl)c1 |  | inactive: -2.09%
Cc1cc(=O)n(Cc2ccccc2)c(O)c1C#N |  | inactive: -2.18%
CC12CN3C(O)C(C)(C1)CC(C)(C2)C3O (configuration not stated) | inconclusive: 18.5 µM [inhibitor, single point] | 
CC1CC(C)CN(CC(=O)c2cccs2)C1 (configuration not stated) |  | inactive: 0%
Cc1ccc(Cl)cc1NC(=O)COC(=O)C12CC3CC(CC(C3)C1)C2 | active: 7.38 µM | 
COC(=O)c1c(CSc2ccc(C)c(C)c2)noc1C(=O)NCc1ccc(OC)cc1 |  | inactive: 14.3%
Cc1ccc(CCNC(=O)CS(=O)Cc2nc(-c3ccccc3Cl)oc2C)cc1 (configuration not stated) | inconclusive: 16.5 µM [inhibitor, single point] | 
CCc1ccc(CN(C)C(=O)c2ccc3c(c2)OCCO3)cc1 |  | inactive: -6.92%
COc1cc(C(=O)NCC2CCCCC2)cc(OC)c1OC | inconclusive: 2.62 µM [inhibitor, full curve] | 
Cn1cc(C(=O)N2CCc3ccccc3C2)c(=O)c2cc(S(=O)(=O)N3CCOCC3)ccc21 | inconclusive: 10.4 µM [inhibitor, partial curve, poor fit] | 
CC(=O)Nc1ccc(S(=O)(=O)NCc2nc(-c3ccccc3)no2)cc1 | inconclusive: 11.7 µM [inhibitor, partial curve] | 
Cc1ccc(S(=O)(=O)CCc2ccncc2)cc1 |  | inactive: 173%
Cc1ccc(N(C(C)C(=O)N2CCN(Cc3ccccc3)CC2)S(C)(=O)=O)cc1 (configuration not stated) | inconclusive: 18.5 µM [inhibitor, single point] | 
NS(=O)(=O)c1ccc(Nc2nc(-c3cccc([N+](=O)[O-])c3)cs2)cc1 | inconclusive: 2.94 µM [inhibitor, full curve, poor fit] | 
N#CC1(NC(=O)COC(=O)c2cc([N+](=O)[O-])ccc2N2CCCC2)CCCCC1 | inconclusive: 18.5 µM [inhibitor, single point] | 
COc1ccc(Cn2cnc3c(N)c(C)c(C)cc32)cc1 | inconclusive: 2.33 µM [inhibitor, full curve, poor fit] | 

SMILES | Potency | activity change, negative = inhibition
COc1ccc(-c2nnc(SC(C(=O)c3c[nH]c4ccccc34)c3ccccc3)n2N)cc1OC (configuration not stated) | inconclusive: 2.62 µM [inhibitor, full curve, poor fit] | 
NS(=O)(=O)c1ccc(NC(=S)Nc2ccc(F)c(F)c2)cc1 |  | inactive: 31.8%
COc1ccc(-c2cc3c(=O)n(CC(=O)Nc4cccc(Cl)c4)ncn3n2)cc1 |  | inactive: 46%
O=C(O)CC(c1ccccc1)n1cccc1 (configuration not stated) | inconclusive: 2.94 µM [inhibitor, full curve, poor fit] | 
CCc1ccccc1NC(=S)NCC1CCN(c2ccc(OC)cc2)C1 (configuration not stated) | inconclusive: 13.1 µM [inhibitor, single point] | 
CCc1ccc(CN2CCCC(C(=O)Nc3ccccc3-c3ccc(OC)cc3)C2)o1 (configuration not stated) | inconclusive: 18.5 µM [inhibitor, single point] | 
COc1cc(OC)c2ccc(=O)oc2c1C(CC(=O)N1CCOCC1)c1ccc(N(C)C)cc1 (configuration not stated) | inconclusive: 13.1 µM [inhibitor, partial curve] | 
O=C(NCc1nc2ccccc2[nH]1)C1=C[C@@H](c2ccc3c(c2)OCO3)C[C@@H](OCc2ccc(CO)cc2)O1 | inconclusive: 18.5 µM [inhibitor, single point] | 
CCC(=O)N1CCc2cc(Br)cc(S(=O)(=O)NCCCN(C)Cc3ccccc3)c21 | inconclusive: 18.5 µM [inhibitor, single point] | 
COc1ccc([N+](=O)[O-])cc1NC(=O)C(C)N(C)Cc1cccc(OC)c1OC (configuration not stated) | inconclusive: 6.57 µM [inhibitor, partial curve, poor fit] | 
O=C(Oc1c(Br)cc(Br)c2cccnc12)N1CCCCC1 | inconclusive: 14.7 µM [inhibitor, single point] | 
COc1ccc(S(=O)(=O)NCc2ccc(C(=O)NCCCN3CC(C)CC(C)C3)cc2)cc1 (configuration not stated) | inconclusive: 10.4 µM [inhibitor, single point] | 
Nc1ccc2nc(-c3cccs3)[nH]c2c1 |  | inactive: -7.68%
Cc1cc(C)c2nc(-c3ccccn3)cc(C(=O)N3CCCC3)c2c1 |  | inactive: -10.4%
O=C(CCN1C(=O)/C(=C/c2ccc(F)cc2)SC1=S)Nc1cc([N+](=O)[O-])ccc1O | inconclusive: 5.86 µM [inhibitor, partial curve] | 
Cc1cc(O)c(C(=O)Cc2csc(C)n2)c(O)c1 | inconclusive: 5.22 µM [inhibitor, partial curve, poor fit] | 
O=C(CNC(=S)N(Cc1ccccc1)Cc1ccccc1F)NCc1ccc(Cl)cc1 | inconclusive: 18.5 µM [inhibitor, single point] | 
O=C(NCc1ccc2c(c1)CCO2)Nc1cccc(C(F)(F)F)c1 | inconclusive: 18.5 µM [inhibitor, single point] | 
CC12CN3CC(C)(CN(C1)C3c1ccc(Cl)cc1Cl)C2=O (configuration not stated) | inconclusive: 0.0928 µM [inhibitor, full curve, poor fit] | 
O=C(c1ccccc1OCc1ccccc1Br)N1CCN(c2ncccn2)CC1 | inconclusive: 13.1 µM [inhibitor, single point] | 
Cc1ccc(C2Nc3ccccc3-c3nc4ccccc4n32)o1 (configuration not stated) |  | inactive: 290%
Cn1cc(C(=O)Nc2ccc3c(c2)CCC3)cn1 |  | inactive: 141%
CN(CC(=O)Nc1cccc(F)c1)C(=O)CCCN1C(=O)c2cccc3cccc(c23)C1=O |  | inactive: -1.37%

Exported as tab-separated lines: part of the list above
SMILES	Potency	activity change, negative = inhibition
COc1cc(C(=O)NCC2CCCCC2)cc(OC)c1OC	inconclusive: 2.62 µM [inhibitor, full curve]	
Cn1cc(C(=O)N2CCc3ccccc3C2)c(=O)c2cc(S(=O)(=O)N3CCOCC3)ccc21	inconclusive: 10.4 µM [inhibitor, partial curve, poor fit]	
CC(=O)Nc1ccc(S(=O)(=O)NCc2nc(-c3ccccc3)no2)cc1	inconclusive: 11.7 µM [inhibitor, partial curve]	
Cc1ccc(S(=O)(=O)CCc2ccncc2)cc1		inactive: 173%
Cc1ccc(N(C(C)C(=O)N2CCN(Cc3ccccc3)CC2)S(C)(=O)=O)cc1 (configuration not stated)	inconclusive: 18.5 µM [inhibitor, single point]	
NS(=O)(=O)c1ccc(Nc2nc(-c3cccc([N+](=O)[O-])c3)cs2)cc1	inconclusive: 2.94 µM [inhibitor, full curve, poor fit]	
N#CC1(NC(=O)COC(=O)c2cc([N+](=O)[O-])ccc2N2CCCC2)CCCCC1	inconclusive: 18.5 µM [inhibitor, single point]	
COc1ccc(Cn2cnc3c(N)c(C)c(C)cc32)cc1	inconclusive: 2.33 µM [inhibitor, full curve, poor fit]	
COc1ccc(-c2nnc(SC(C(=O)c3c[nH]c4ccccc34)c3ccccc3)n2N)cc1OC (configuration not stated)	inconclusive: 2.62 µM [inhibitor, full curve, poor fit]	
NS(=O)(=O)c1ccc(NC(=S)Nc2ccc(F)c(F)c2)cc1		inactive: 31.8%
COc1ccc(-c2cc3c(=O)n(CC(=O)Nc4cccc(Cl)c4)ncn3n2)cc1		inactive: 46%
O=C(O)CC(c1ccccc1)n1cccc1 (configuration not stated)	inconclusive: 2.94 µM [inhibitor, full curve, poor fit]	
CCc1ccccc1NC(=S)NCC1CCN(c2ccc(OC)cc2)C1 (configuration not stated)	inconclusive: 13.1 µM [inhibitor, single point]	

More entries follow.

SMILES | Potency | activity change, negative = inhibition
CC1(C)CC(NC(=O)c2cc(S(=O)(=O)N3CCOCC3)c(Cl)cc2Cl)CC(C)(C)N1 | inconclusive: 0.738 µM [inhibitor, full curve, poor fit] | 
CC(C)(C)n1ncc2c(=O)n(CC(=O)c3ccc(Cl)cc3)cnc21 | inconclusive: 0.0415 µM [inhibitor, full curve, poor fit] | 
Cc1cc(C)c(NC(=O)c2sc3nc(C)[nH]c(=O)c3c2C)c(C)c1 |  | inactive: -0.342%
Cc1ccc(CSC2=NCCN2C(=O)C2CC2)cc1 | inconclusive: 18.5 µM [inhibitor, partial curve, poor fit] | 
Cc1cc(C(=O)NC(C)c2ccccc2)c2cc(F)ccc2n1 (configuration not stated) | inconclusive: 13.1 µM [inhibitor, partial curve, poor fit] | 
CCc1ccccc1NC(=O)CN1CCN(C(=O)CNC(=O)c2ccc(-c3ccccc3)cc2)CC1 | inconclusive: 3.7 µM [inhibitor, full curve, poor fit] | 
CC(C)c1ccc(C(=O)CC2(O)C(=O)N(CN3CCOCC3)c3ccccc32)cc1 (configuration not stated) | active: 11.7 µM | 
S=C(Nc1ccc(N2CCOCC2)cc1)Nc1ccc2snnc2c1 |  | inactive: 45.4%
Cc1ccc(S(=O)(=O)Cc2nc3ccccc3c(=O)[nH]2)cc1 |  | inactive: -0.206%
Cc1cccc(OCC(=O)O/N=C(\N)Cc2ccc([N+](=O)[O-])cc2)c1 | inconclusive: 0.828 µM [inhibitor, full curve, poor fit] | 
Cc1ccc(S(=O)(=O)N(C)C)cc1NC(=O)C1CCCN(C(=O)c2ccc(Cl)cc2)C1 (configuration not stated) | active: 4.65 µM | 
Cc1cc(C)c2c(=O)n(CC(=O)NCCCN3CCN(c4ccccc4F)CC3)sc2n1 | inconclusive: 16.5 µM [inhibitor, single point] | 
COc1ccc(COCC(O)CN2CCC(CN3C(=O)c4cccc5cccc(c45)C3=O)CC2)cc1OC (configuration not stated) | active: 11.7 µM | 
COc1cccc(C(=O)O/N=C(\N)c2ccncc2)c1 | inconclusive: 18.5 µM [inhibitor, single point] | 
COC(OC)C1Nc2ccccc2C(=O)N1c1ccc(F)cc1 (configuration not stated) |  | inactive: -0.224%
CCOc1ccc(NC(=O)CSc2ccc(-c3ccco3)nn2)cc1 | inconclusive: 5.86 µM [inhibitor, partial curve] | 
c1ccc(Sc2ncnc3c2oc2ccccc23)nc1 | inconclusive: 0.165 µM [inhibitor, full curve, poor fit] | 
C/C(CC(=O)Nc1cccc(Cl)c1Cl)=N\NC(=O)c1ccccc1C | inconclusive: 18.5 µM [inhibitor, single point] | 
Cc1ccc(NC(=O)CCS(=O)(=O)c2ccc3c(c2)NC(=O)C(C)S3)nc1 (configuration not stated) | inconclusive: 18.5 µM [inhibitor, single point] | 
Cc1ccc(-n2nc3c(c2NC(=O)C(C)(C)C)CS(=O)(=O)C3)cc1 |  | inactive: 43.7%
Cc1ccc(/C=C/C(=O)OCn2nnc3ccccc3c2=O)o1 |  | inactive: 15.9%
